Drawing on patent US20240123070A1, “EPITOPE PEPTIDE OF RAS G13D MUTANT AND T CELL RECEPTOR RECOGNIZING RAS G13D MUTANT” (SHANGHAI GENBASE BIOTECHNOLOGY CO., LTD., priority 2021, published 2024), this text covers mTCRβ % for seven molecules.

The chains are these.
B1: β96T-L: B8.2.4 TCR point mutant, Vβ-CDR3 96T to L (protein)
TCR alpha: AQKITQTQPGMFVQEKEAVTLDCTYDTSDPSYGLFWYKQPSSGEMIFLIYQGSYDQQNATEGRYSLNFQKARKSANLVISASQLGDSAMYFCAMRERTGTASKLTFGTGTRLQVTLDIQNPEPAVYQLKDPRSQDSTLCLFTDFDSQINVPKTMESGTFITDKTVLDMKAMDSKSNGAIAWSNQTSFTCQDIFKETNATYPSSDVPCDATLTEKSFETDMNLNFQNLSVMGLRILLLKVAGFNLLMTLRLWSS
TCR beta: DVKVTQSSRYLVKRTGEKVFLECVQDMDHENMFWYRQDPGLGLRLIYFSYDVKMKEKGDIPEGYSVSREKKERFSLILESASTNQTSMYLCASSQLVPPQHFGDGTRLSILEDLRNVTPPKVSLFEPSKAEIANKQKATLVCLARGFFPDHVELSWWVNGKEVHSGVSTDPQAYKESNYSYCLSSRLRVSATFWHNPRNHFRCQVQFHGLSEEDKWPEGSPKPVTQNISAEAWGRADCGITSASYQQGVLSATILYEILLGKATLYAVLVSTLVVMAMVKRKNS
B2: β96T-R: B8.2.4 TCR point mutant, Vβ-CDR3 96T to R (protein)
TCR alpha: AQKITQTQPGMFVQEKEAVTLDCTYDTSDPSYGLFWYKQPSSGEMIFLIYQGSYDQQNATEGRYSLNFQKARKSANLVISASQLGDSAMYFCAMRERTGTASKLTFGTGTRLQVTLDIQNPEPAVYQLKDPRSQDSTLCLFTDFDSQINVPKTMESGTFITDKTVLDMKAMDSKSNGAIAWSNQTSFTCQDIFKETNATYPSSDVPCDATLTEKSFETDMNLNFQNLSVMGLRILLLKVAGFNLLMTLRLWSS
TCR beta: DVKVTQSSRYLVKRTGEKVFLECVQDMDHENMFWYRQDPGLGLRLIYFSYDVKMKEKGDIPEGYSVSREKKERFSLILESASTNQTSMYLCASSQRVPPQHFGDGTRLSILEDLRNVTPPKVSLFEPSKAEIANKQKATLVCLARGFFPDHVELSWWVNGKEVHSGVSTDPQAYKESNYSYCLSSRLRVSATFWHNPRNHFRCQVQFHGLSEEDKWPEGSPKPVTQNISAEAWGRADCGITSASYQQGVLSATILYEILLGKATLYAVLVSTLVVMAMVKRKNS
B3: β96T-M: B8.2.4 TCR point mutant, Vβ-CDR3 96T to M (protein)
TCR alpha: AQKITQTQPGMFVQEKEAVTLDCTYDTSDPSYGLFWYKQPSSGEMIFLIYQGSYDQQNATEGRYSLNFQKARKSANLVISASQLGDSAMYFCAMRERTGTASKLTFGTGTRLQVTLDIQNPEPAVYQLKDPRSQDSTLCLFTDFDSQINVPKTMESGTFITDKTVLDMKAMDSKSNGAIAWSNQTSFTCQDIFKETNATYPSSDVPCDATLTEKSFETDMNLNFQNLSVMGLRILLLKVAGFNLLMTLRLWSS
TCR beta: DVKVTQSSRYLVKRTGEKVFLECVQDMDHENMFWYRQDPGLGLRLIYFSYDVKMKEKGDIPEGYSVSREKKERFSLILESASTNQTSMYLCASSQMVPPQHFGDGTRLSILEDLRNVTPPKVSLFEPSKAEIANKQKATLVCLARGFFPDHVELSWWVNGKEVHSGVSTDPQAYKESNYSYCLSSRLRVSATFWHNPRNHFRCQVQFHGLSEEDKWPEGSPKPVTQNISAEAWGRADCGITSASYQQGVLSATILYEILLGKATLYAVLVSTLVVMAMVKRKNS
B4: β96T-Q: B8.2.4 TCR point mutant, Vβ-CDR3 96T to Q (protein)
TCR alpha: AQKITQTQPGMFVQEKEAVTLDCTYDTSDPSYGLFWYKQPSSGEMIFLIYQGSYDQQNATEGRYSLNFQKARKSANLVISASQLGDSAMYFCAMRERTGTASKLTFGTGTRLQVTLDIQNPEPAVYQLKDPRSQDSTLCLFTDFDSQINVPKTMESGTFITDKTVLDMKAMDSKSNGAIAWSNQTSFTCQDIFKETNATYPSSDVPCDATLTEKSFETDMNLNFQNLSVMGLRILLLKVAGFNLLMTLRLWSS
TCR beta: DVKVTQSSRYLVKRTGEKVFLECVQDMDHENMFWYRQDPGLGLRLIYFSYDVKMKEKGDIPEGYSVSREKKERFSLILESASTNQTSMYLCASSQQVPPQHFGDGTRLSILEDLRNVTPPKVSLFEPSKAEIANKQKATLVCLARGFFPDHVELSWWVNGKEVHSGVSTDPQAYKESNYSYCLSSRLRVSATFWHNPRNHFRCQVQFHGLSEEDKWPEGSPKPVTQNISAEAWGRADCGITSASYQQGVLSATILYEILLGKATLYAVLVSTLVVMAMVKRKNS
B5: β96T-N: B8.2.4 TCR point mutant, Vβ-CDR3 96T to N; CDR3β ASSQNVPPQH (protein)
TCR alpha: AQKITQTQPGMFVQEKEAVTLDCTYDTSDPSYGLFWYKQPSSGEMIFLIYQGSYDQQNATEGRYSLNFQKARKSANLVISASQLGDSAMYFCAMRERTGTASKLTFGTGTRLQVTLDIQNPEPAVYQLKDPRSQDSTLCLFTDFDSQINVPKTMESGTFITDKTVLDMKAMDSKSNGAIAWSNQTSFTCQDIFKETNATYPSSDVPCDATLTEKSFETDMNLNFQNLSVMGLRILLLKVAGFNLLMTLRLWSS
TCR beta: DVKVTQSSRYLVKRTGEKVFLECVQDMDHENMFWYRQDPGLGLRLIYFSYDVKMKEKGDIPEGYSVSREKKERFSLILESASTNQTSMYLCASSQNVPPQHFGDGTRLSILEDLRNVTPPKVSLFEPSKAEIANKQKATLVCLARGFFPDHVELSWWVNGKEVHSGVSTDPQAYKESNYSYCLSSRLRVSATFWHNPRNHFRCQVQFHGLSEEDKWPEGSPKPVTQNISAEAWGRADCGITSASYQQGVLSATILYEILLGKATLYAVLVSTLVVMAMVKRKNS
B6: β96T-P: B8.2.4 TCR point mutant, Vβ-CDR3 96T to P (protein)
TCR alpha: AQKITQTQPGMFVQEKEAVTLDCTYDTSDPSYGLFWYKQPSSGEMIFLIYQGSYDQQNATEGRYSLNFQKARKSANLVISASQLGDSAMYFCAMRERTGTASKLTFGTGTRLQVTLDIQNPEPAVYQLKDPRSQDSTLCLFTDFDSQINVPKTMESGTFITDKTVLDMKAMDSKSNGAIAWSNQTSFTCQDIFKETNATYPSSDVPCDATLTEKSFETDMNLNFQNLSVMGLRILLLKVAGFNLLMTLRLWSS
TCR beta: DVKVTQSSRYLVKRTGEKVFLECVQDMDHENMFWYRQDPGLGLRLIYFSYDVKMKEKGDIPEGYSVSREKKERFSLILESASTNQTSMYLCASSQPVPPQHFGDGTRLSILEDLRNVTPPKVSLFEPSKAEIANKQKATLVCLARGFFPDHVELSWWVNGKEVHSGVSTDPQAYKESNYSYCLSSRLRVSATFWHNPRNHFRCQVQFHGLSEEDKWPEGSPKPVTQNISAEAWGRADCGITSASYQQGVLSATILYEILLGKATLYAVLVSTLVVMAMVKRKNS
B7: β96T-S: B8.2.4 TCR point mutant, Vβ-CDR3 96T to S; CDR3β ASSQSVPPQH (protein)
TCR alpha: AQKITQTQPGMFVQEKEAVTLDCTYDTSDPSYGLFWYKQPSSGEMIFLIYQGSYDQQNATEGRYSLNFQKARKSANLVISASQLGDSAMYFCAMRERTGTASKLTFGTGTRLQVTLDIQNPEPAVYQLKDPRSQDSTLCLFTDFDSQINVPKTMESGTFITDKTVLDMKAMDSKSNGAIAWSNQTSFTCQDIFKETNATYPSSDVPCDATLTEKSFETDMNLNFQNLSVMGLRILLLKVAGFNLLMTLRLWSS
TCR beta: DVKVTQSSRYLVKRTGEKVFLECVQDMDHENMFWYRQDPGLGLRLIYFSYDVKMKEKGDIPEGYSVSREKKERFSLILESASTNQTSMYLCASSQSVPPQHFGDGTRLSILEDLRNVTPPKVSLFEPSKAEIANKQKATLVCLARGFFPDHVELSWWVNGKEVHSGVSTDPQAYKESNYSYCLSSRLRVSATFWHNPRNHFRCQVQFHGLSEEDKWPEGSPKPVTQNISAEAWGRADCGITSASYQQGVLSATILYEILLGKATLYAVLVSTLVVMAMVKRKNS

The subject of this series is murine TCRβ constant region. Put plainly: mTCRβ expression detection on Jurkat-NFAT-Luc cells. Type of series: cell-based. The settings on record: TCR mutant transduced Jurkat-NFAT-Luc cells.
In turn, B1 gave a mTCRβ % of 73.1%.

Turning to B2, the mTCRβ % is 69.2%.

For B3, the mTCRβ % is given as 67.9%.

Consider B4, for which the mTCRβ % is recorded as 81.5%.

As for B5, the mTCRβ % worked out at 74.1%.

B6 had a mTCRβ % of 46.6%.

B7: the mTCRβ % is recorded as 61.9%.
